# PubChem BioAssay AID743454, Peter MacCallum Cancer Centre | 2014
# Screen: 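Search for knock-downs that restore vorinostat killing in resistant colon cancer cells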 (primary screen)
# Cells: human HCT116-VR colon cancer cells, selected for vorinostat resistance
# Reagent: siRNA pool against human genes, 40 nM siRNA pool
# Time to read-out: vorinostat for 24 h, read-out about 72 h after transfection
# Treatment: vorinostat at 2.5 µM final
# Measurement: 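Cell viability by CellTiter-Fluor and caspase 3/7 activity by luminescence, each scaled to mock wells per plate, duplicates averaged, then robust z-scored over all plates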
# Reading the numbers: viability robust z-score: higher = more viable cells than screen typical; caspase robust z-score: higher = more caspase 3/7 activity than screen typical
# Call rule: 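a knock-down is a hit when classed RV1 or RV2 for lowered viability, or CA1 or CA2 for caspase activation; those lethal without drug were dropped; hits were retested singly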
# Here is one part, drawn at random, of about 18,000 reagents tested. Over the whole deposit, 450 (2.5%) are marked active. 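Single biological run; no consistent viability z cut-off exists, so the class columns, not z-scores, define the calls.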
Target gene,viability hit class,caspase hit class,viability robust z-score,caspase robust z-score,Outcome
AP1B1,no change,no change,-1.22,2.09,inactive
TMCC3,no change,no change,-0.5,1.72,inactive
CREBRF,no change,no change,-0.39,-1.08,inactive
PTPMT1,no change,no change,-1.19,-0.39,inactive
TUBB2A,no change,no change,-2.68,2.16,inactive
LEPROTL1,no change,no change,-1.1,-0.48,inactive
POU6F1,no change,no change,0.02,-0.47,inactive
WDR25,no change,no change,-1.21,1.73,inactive
DPPA5,no change,CA1 (caspase activation),-0.98,6.21,active
CMTR1,no change,no change,-0.58,-0.65,inactive
TRIM33,no change,no change,0.18,-0.66,inactive
ZNF114,no change,no change,-0.14,-0.42,inactive
ELMO2,no change,no change,-0.83,-0.13,inactive
RAB22A,no change,no change,0.42,-0.9,inactive
CSF1R,no change,no change,-2.57,1.29,inactive
CTDSP2,no change,no change,0.34,0.2,inactive
PDE7A,no change,no change,0.9,0.53,inactive
PPM1L,no change,no change,1.29,0.08,inactive
TRIP13,no change,no change,-0.36,0.21,inactive
SLC48A1,no change,no change,-1.23,0.6,inactive
SLC39A9,no change,no change,0.19,0.5,inactive
EIF4ENIF1,no change,no change,0.76,0.76,inactive
IMPACT,no change,no change,-2,2.72,inactive
KAAG1,no change,no change,-1.95,3.06,inactive
BEND6,no change,CA1 (caspase activation),-0.48,5.53,active
LRIF1,no change,no change,-0.05,-0.02,inactive
ALPK1,no change,no change,-0.2,0.77,inactive
TMEM126B,no change,no change,1.09,-0.46,inactive
LDLRAD3,no change,no change,-0.04,-0.48,inactive
RBFOX2,no change,no change,-3.48,1.08,inactive
TCF7L2,no change,no change,0.88,-0.22,inactive
PRSS50,no change,no change,-0.66,1.29,inactive
ZXDB,no change,no change,-0.18,-0.6,inactive
OR7E85BP,no change,CA2 (caspase activation),-0.71,6.98,active
ESRP1,no change,no change,2.15,1.4,inactive
PRICKLE2,no change,CA1 (caspase activation),-0.98,11.4,active
KCNB2,no change,no change,0.34,-0.44,inactive
PPTC7,no change,no change,-0.92,-0.34,inactive
DSCAM,no change,no change,-1.42,-1.05,inactive
NLGN1,no change,no change,-0.34,-0.42,inactive
KRT13,no change,no change,-1.2,2.31,inactive
BACE1,no change,no change,-3.46,1.15,inactive
KCNMB1,no change,no change,0.24,2.12,inactive
PYHIN1,no change,no change,-0.5,-0.18,inactive
ITIH3,no change,no change,0.64,0.12,inactive
STRIP2,no change,no change,0.76,1.82,inactive
OR4C6,no change,no change,-0.44,1.11,inactive
LRRC59,no change,no change,-1.06,2.15,inactive
BAALC,no change,no change,0.52,1.73,inactive
VN1R5,no change,no change,0.4,-0.95,inactive
BOC,no change,no change,-0.67,4.39,inactive
MRPS33,no change,no change,0.69,-0.48,inactive
KCNS2,no change,no change,-1.96,0.42,inactive
TMF1,no change,no change,-0.55,-1.14,inactive
DOCK8-AS1,no change,no change,-0.08,0.5,inactive
ZNF81,no change,no change,0.93,1.44,inactive
PIEZO1,no change,no change,-0.2,1.31,inactive
GSTT1,no change,no change,-0.92,3.97,inactive
SRGN,no change,no change,0.16,-0.8,inactive
DUSP18,no change,CA1 (caspase activation),1.06,5.65,active
CIROZ,no change,no change,-0.61,1.34,inactive
PTPDC1,no change,no change,-1.32,1.05,inactive
PNPT1,no change,no change,-1.31,2.89,inactive
MMP10,no change,no change,-0.36,1.63,inactive
CCNB1,no change,no change,-2.24,4.42,inactive
HBD,no change,no change,-0.06,0,inactive
CD34,no change,no change,-0.8,-0.26,inactive
LARS2,no change,no change,1.3,-0.74,inactive
FAM221A,no change,no change,0.42,1.11,inactive
RAB27B,no change,no change,0.72,0.59,inactive
INTS6L,no change,CA2 (caspase activation),-1.62,5.4,active
VN1R2,no change,no change,0.74,-0.64,inactive
FIGNL1,no change,no change,0.38,-0.79,inactive

10 entries already listed, ordered by “caspase robust z-score”, descending.
Target gene,viability hit class,caspase hit class,viability robust z-score,caspase robust z-score,Outcome
DUSP18,no change,CA1 (caspase activation),1.06,5.65,active
BOC,no change,no change,-0.67,4.39,inactive
GSTT1,no change,no change,-0.92,3.97,inactive
ZNF81,no change,no change,0.93,1.44,inactive
PIEZO1,no change,no change,-0.2,1.31,inactive
DOCK8-AS1,no change,no change,-0.08,0.5,inactive
KCNS2,no change,no change,-1.96,0.42,inactive
MRPS33,no change,no change,0.69,-0.48,inactive
SRGN,no change,no change,0.16,-0.8,inactive
TMF1,no change,no change,-0.55,-1.14,inactive
